The supplement of paper PMC10849652
The other results are listed elsewhere or left out.

Chains of the proteins cited; added tags and fusions are not shown. Lines headed by an entry give the natural chain unless they say otherwise; changes in a name come on top.
UniProt O00124: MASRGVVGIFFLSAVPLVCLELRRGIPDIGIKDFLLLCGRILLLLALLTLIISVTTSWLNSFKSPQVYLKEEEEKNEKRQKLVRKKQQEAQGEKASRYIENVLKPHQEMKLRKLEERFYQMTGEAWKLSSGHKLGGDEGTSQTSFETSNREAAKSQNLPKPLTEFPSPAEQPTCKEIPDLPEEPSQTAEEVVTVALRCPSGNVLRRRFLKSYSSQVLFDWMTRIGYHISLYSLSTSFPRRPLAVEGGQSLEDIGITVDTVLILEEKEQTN
UniProt Q92995: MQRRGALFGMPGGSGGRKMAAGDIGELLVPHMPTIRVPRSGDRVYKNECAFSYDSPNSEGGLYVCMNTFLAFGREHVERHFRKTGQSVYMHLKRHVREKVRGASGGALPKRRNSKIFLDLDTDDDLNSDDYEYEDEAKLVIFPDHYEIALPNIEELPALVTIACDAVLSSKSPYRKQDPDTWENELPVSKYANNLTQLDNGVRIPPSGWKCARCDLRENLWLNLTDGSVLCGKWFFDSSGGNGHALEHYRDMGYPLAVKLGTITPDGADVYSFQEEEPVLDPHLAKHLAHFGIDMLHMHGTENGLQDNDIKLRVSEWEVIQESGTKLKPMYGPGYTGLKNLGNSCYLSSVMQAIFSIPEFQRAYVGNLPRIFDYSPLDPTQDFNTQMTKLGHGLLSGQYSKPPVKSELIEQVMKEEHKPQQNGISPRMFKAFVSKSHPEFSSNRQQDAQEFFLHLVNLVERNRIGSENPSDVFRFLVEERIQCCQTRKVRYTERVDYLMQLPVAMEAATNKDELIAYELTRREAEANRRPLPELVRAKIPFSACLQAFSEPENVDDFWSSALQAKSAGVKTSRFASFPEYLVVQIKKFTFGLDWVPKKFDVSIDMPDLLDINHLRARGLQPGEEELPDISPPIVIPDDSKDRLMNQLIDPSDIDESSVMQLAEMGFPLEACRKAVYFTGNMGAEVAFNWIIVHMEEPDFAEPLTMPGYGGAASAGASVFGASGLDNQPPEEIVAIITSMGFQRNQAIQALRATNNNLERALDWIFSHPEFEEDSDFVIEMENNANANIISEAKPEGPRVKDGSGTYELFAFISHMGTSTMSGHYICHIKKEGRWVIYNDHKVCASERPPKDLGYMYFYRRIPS
UniProt P26640: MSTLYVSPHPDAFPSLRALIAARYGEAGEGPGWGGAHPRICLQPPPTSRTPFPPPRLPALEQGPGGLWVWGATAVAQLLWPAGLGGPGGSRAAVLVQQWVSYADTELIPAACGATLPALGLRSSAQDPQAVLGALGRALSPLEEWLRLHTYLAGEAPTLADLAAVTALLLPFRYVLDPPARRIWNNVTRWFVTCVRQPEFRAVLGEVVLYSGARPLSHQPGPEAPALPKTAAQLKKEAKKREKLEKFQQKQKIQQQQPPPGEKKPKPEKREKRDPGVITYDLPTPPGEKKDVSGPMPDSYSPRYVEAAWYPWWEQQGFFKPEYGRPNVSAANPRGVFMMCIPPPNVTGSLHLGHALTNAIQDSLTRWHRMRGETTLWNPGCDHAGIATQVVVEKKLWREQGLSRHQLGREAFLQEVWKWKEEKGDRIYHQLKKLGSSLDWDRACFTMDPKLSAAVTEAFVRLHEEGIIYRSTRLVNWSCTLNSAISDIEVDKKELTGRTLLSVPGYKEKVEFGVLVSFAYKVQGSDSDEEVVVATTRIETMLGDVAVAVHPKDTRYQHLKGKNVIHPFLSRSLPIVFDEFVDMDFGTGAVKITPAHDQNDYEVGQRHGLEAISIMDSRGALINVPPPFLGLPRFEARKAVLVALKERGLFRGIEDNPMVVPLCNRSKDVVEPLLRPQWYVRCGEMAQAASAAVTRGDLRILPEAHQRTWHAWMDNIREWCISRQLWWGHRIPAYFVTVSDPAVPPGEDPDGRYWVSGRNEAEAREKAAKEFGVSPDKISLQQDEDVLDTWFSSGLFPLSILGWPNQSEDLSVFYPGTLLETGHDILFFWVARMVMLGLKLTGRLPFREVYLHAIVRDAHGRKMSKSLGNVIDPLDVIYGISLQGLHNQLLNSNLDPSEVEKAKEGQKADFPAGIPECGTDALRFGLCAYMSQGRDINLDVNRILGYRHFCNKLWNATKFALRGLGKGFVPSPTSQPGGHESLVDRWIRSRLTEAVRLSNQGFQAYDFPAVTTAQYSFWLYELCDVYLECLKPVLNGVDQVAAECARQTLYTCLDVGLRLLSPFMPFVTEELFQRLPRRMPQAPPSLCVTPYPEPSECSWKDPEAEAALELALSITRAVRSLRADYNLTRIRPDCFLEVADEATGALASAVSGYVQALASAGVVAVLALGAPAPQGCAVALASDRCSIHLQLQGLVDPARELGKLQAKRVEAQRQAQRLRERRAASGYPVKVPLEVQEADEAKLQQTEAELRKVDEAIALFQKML
UniProt O94888: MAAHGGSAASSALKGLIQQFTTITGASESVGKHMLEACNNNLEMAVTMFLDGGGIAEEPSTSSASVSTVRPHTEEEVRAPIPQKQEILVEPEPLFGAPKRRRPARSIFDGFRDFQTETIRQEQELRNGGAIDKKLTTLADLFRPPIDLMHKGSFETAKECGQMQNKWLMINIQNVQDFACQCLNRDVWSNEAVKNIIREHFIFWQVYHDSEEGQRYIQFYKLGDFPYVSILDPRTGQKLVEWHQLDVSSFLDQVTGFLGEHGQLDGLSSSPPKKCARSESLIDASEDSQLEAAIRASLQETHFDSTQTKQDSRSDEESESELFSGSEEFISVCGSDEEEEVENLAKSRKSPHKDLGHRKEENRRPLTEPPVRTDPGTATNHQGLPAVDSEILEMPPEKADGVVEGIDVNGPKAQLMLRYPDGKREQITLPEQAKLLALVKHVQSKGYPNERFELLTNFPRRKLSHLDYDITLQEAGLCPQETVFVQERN
UniProt Q9H1C4: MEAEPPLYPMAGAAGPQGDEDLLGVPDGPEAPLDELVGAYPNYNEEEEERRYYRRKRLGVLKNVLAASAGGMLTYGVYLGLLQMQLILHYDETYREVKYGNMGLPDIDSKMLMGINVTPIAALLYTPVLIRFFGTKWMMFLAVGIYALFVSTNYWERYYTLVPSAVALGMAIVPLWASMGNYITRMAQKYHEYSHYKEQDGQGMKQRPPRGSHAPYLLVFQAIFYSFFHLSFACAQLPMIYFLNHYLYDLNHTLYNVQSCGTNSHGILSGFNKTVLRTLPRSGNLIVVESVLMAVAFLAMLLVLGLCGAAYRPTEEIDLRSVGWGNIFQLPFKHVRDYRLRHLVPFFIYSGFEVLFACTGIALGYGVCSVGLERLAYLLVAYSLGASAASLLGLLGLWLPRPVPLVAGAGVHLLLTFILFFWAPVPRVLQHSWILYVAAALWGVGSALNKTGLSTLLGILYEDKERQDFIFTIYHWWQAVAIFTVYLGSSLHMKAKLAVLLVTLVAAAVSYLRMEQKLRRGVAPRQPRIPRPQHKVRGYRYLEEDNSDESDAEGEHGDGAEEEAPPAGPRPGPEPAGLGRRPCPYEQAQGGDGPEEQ
UniProt P31930: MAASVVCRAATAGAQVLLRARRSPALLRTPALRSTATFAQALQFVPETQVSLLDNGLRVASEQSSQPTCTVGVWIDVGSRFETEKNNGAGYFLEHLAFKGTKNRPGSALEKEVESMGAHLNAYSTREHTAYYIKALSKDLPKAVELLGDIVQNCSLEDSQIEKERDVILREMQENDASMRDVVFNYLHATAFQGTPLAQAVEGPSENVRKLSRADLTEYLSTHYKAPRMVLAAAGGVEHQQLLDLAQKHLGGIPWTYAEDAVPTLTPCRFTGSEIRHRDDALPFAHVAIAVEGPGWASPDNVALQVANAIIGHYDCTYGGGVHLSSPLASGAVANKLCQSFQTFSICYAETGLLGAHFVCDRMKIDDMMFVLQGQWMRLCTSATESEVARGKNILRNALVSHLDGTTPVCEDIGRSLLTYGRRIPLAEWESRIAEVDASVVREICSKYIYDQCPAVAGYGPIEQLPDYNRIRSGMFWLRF
UniProt P51784: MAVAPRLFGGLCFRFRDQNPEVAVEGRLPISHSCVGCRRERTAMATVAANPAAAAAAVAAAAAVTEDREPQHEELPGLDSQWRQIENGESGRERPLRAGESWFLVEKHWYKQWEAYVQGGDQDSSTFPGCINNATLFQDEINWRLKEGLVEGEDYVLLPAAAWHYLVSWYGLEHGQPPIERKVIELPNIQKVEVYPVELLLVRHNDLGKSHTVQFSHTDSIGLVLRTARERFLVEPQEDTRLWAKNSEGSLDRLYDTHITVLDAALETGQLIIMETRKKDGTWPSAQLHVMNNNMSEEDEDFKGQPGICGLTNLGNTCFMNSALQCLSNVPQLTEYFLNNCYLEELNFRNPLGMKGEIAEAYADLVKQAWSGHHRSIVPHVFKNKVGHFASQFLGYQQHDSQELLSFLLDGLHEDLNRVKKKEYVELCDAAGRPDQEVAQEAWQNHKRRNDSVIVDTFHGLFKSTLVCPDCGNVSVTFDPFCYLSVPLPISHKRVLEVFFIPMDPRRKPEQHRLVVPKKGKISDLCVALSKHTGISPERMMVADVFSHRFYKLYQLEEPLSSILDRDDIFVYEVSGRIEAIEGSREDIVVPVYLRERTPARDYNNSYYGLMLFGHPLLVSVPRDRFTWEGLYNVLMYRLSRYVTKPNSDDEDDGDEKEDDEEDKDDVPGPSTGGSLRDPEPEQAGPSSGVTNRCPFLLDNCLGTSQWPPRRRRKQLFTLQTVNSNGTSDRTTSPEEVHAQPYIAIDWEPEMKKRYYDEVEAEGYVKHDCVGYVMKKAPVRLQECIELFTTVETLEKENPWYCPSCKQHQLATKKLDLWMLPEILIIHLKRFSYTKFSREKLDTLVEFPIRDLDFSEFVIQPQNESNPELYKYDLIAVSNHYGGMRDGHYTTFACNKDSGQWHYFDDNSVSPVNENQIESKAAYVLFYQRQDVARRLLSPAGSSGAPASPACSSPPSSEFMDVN
UniProt O60763: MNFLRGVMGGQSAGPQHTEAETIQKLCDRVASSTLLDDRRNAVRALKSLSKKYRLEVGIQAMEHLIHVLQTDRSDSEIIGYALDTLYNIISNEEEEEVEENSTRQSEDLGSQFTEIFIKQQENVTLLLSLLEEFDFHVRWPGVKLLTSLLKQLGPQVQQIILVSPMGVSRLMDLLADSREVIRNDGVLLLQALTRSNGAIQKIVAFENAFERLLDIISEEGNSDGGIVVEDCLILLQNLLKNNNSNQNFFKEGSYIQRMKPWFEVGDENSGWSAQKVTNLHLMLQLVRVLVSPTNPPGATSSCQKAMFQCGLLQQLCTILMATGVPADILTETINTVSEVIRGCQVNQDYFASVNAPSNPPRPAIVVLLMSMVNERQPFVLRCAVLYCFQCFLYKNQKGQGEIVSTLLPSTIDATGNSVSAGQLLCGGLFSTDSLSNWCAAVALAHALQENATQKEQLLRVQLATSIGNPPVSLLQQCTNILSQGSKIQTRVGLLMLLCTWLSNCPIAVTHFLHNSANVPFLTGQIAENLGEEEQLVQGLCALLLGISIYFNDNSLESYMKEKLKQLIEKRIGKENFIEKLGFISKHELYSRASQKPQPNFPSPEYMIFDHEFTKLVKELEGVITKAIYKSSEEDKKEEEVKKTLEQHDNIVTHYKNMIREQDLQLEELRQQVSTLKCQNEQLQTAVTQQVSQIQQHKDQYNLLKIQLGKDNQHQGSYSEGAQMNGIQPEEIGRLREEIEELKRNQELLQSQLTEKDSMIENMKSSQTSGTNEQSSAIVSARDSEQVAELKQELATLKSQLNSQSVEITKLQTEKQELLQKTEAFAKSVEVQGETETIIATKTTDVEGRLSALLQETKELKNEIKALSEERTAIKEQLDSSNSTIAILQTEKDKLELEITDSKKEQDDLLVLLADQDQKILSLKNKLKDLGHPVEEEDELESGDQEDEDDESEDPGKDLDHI
UniProt Q99536: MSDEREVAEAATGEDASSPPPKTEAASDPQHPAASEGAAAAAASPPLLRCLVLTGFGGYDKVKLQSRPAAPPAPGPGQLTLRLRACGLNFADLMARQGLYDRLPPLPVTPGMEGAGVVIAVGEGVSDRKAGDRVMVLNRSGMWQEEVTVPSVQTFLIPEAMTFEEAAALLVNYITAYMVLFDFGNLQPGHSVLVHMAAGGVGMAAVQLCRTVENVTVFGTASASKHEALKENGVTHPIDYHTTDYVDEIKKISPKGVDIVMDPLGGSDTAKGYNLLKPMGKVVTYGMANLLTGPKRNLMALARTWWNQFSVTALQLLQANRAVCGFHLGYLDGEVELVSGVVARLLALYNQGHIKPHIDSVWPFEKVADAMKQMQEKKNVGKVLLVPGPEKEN

Legend:
Experiment in all cases: log2 fold change, soluble protein after heating vs DMSO (PISA); higher = thermal stabilisation; K562 cells, 10 uM, 30 min; active = over 0.2 and 3.5 SD of the protein, either way, in both replicates (recomputed)
[1] = compound: CC1=C(C=C(C=C1)NC(=O)C2=CC(=CC=C2)C(C)(C)C#N)NC3=CC4=C(C=C3)N=CN(C4=O)C
Procedure, shortened: (§1)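 Values are thermal stability changes relative to control samples and are taken from duplicates. They are stated as log2 fold changes. Before quantification by TMTpro 16plex LC-MS/MS with equalised channel sums, K562 cells at 2×10^6 cells/mL were treated with 10 μM compound for 30 min, heated in aliquots for 3 min across 48°C-58°C, pooled, extracted in PBS with 0.5% NP-40 at 4°C, and centrifuged at 21,000xg for 90 min to give the soluble supernatant.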

[2] = compound: CC1=C(C=C(C=C1)NC(=O)C2=CC(=CC=C2)N(C)C)NC(=O)C3=CC=C(C=C3)O
Procedure, shortened: as §1

[3] = compound: CC1=CC=C(C=C1)SC2=C3C=C(SC3=CN=C2)C(=O)N
Procedure, shortened: as §1

Nexturastat A = compound: CCCCN(Cc1ccc(C(=O)NO)cc1)C(=O)Nc1ccccc1 [Nexturastat A]
Procedure, shortened: as §1

vemurafenib = compound: CCCS(=O)(=O)Nc1ccc(F)c(C(=O)c2c[nH]c3ncc(-c4ccc(Cl)cc4)cc23)c1F [vemurafenib]
Procedure, shortened: as §1

[4] = compound: CCCS(=O)(=O)Nc1ccc(F)c(C(=O)c2c[nH]c3ncc(Cl)cc23)c1F
Procedure, shortened: as §1

barasertib = compound: CCN(CCCOc1ccc2c(Nc3cc(CC(=O)Nc4cccc(F)c4)[nH]n3)ncnc2c1)CCOP(=O)(O)O [barasertib]
Procedure, shortened: as §1

[5] = compound: CC1=NC(=CC=C1)C2=C(N=C(N2)C(C)(C)C)C3=CC4=NC=CN=C4C=C3
Procedure, shortened: as §1

[6] = compound: CCCc1cc(C)[nH]c(=O)c1CNC(=O)c1cc(-c2ccnc(N3CCN(C)CC3)c2)cc2c1cnn2C(C)C
Procedure, shortened: as §1

givinostat = compound: CCN(CC)Cc1ccc2cc(COC(=O)Nc3ccc(C(=O)NO)cc3)ccc2c1 [givinostat]
Procedure, shortened: as §1

Measured: log2 fold change

UBXN8 (UniProt O00124)
inactive: [1] -0.029 | [2] 0.169 | [3] 0.023 | Nexturastat A 0.334 | vemurafenib 0.089 | [4] -0.024 | barasertib -0.218

USP13 (UniProt Q92995)
inactive: [1] 0.043 | [2] -0.029 | [3] 0.112 | [5] 0.022 | vemurafenib 0.02 | [4] 0.259 | [6] -0.045 | givinostat 0.038 | barasertib 0.042

VAC14 (UniProt Q08AM6)
inactive: [1] 0.026 | [2] 0.016 | [3] -0.003 | [5] 0.048 | Nexturastat A -0.039 | vemurafenib -0.006 | [4] 0.021 | [6] -0.042 | givinostat -0.016 | barasertib 0.014

VARS (UniProt P26640)
inactive: [1] 0.037 | [2] -0.045 | [3] -0.018 | [5] 0.004 | Nexturastat A 0.021 | vemurafenib 0.014 | [4] 0.056 | [6] 0.03 | givinostat 0.012 | barasertib 0.006

USP25 isoform 3 (UniProt Q9UHP3)
inactive: [1] 0.004 | [2] 0.008 | [3] -0.009 | [5] 0.045 | Nexturastat A -0.029 | vemurafenib 0.04 | [4] 0.027 | [6] 0.024 | givinostat 0.015 | barasertib 0.02

Copied from the results shown (two entries):
UBXN8 (UniProt O00124)
inactive: [1] -0.029 | [2] 0.169 | [3] 0.023 | Nexturastat A 0.334 | vemurafenib 0.089 | [4] -0.024 | barasertib -0.218

USP13 (UniProt Q92995)
inactive: [1] 0.043 | [2] -0.029 | [3] 0.112 | [5] 0.022 | vemurafenib 0.02 | [4] 0.259 | [6] -0.045 | givinostat 0.038 | barasertib 0.042

(next part)

UBR5 (UniProt O95071)
inactive: [1] 0.001 | [2] 0.001 | [3] -0.045 | [5] -0.009 | Nexturastat A 0.071 | vemurafenib 0.015 | [4] -0.003 | [6] 0.058 | givinostat 0.05 | barasertib -0.007

UBXN7 (UniProt O94888)
inactive: [1] -0.016 | [2] 0.025 | [3] -0.018 | [5] -0.002 | Nexturastat A -0.031 | vemurafenib 0.049 | [4] 0.023 | [6] 0.019 | givinostat -0.018 | barasertib 0.006

UVRAG (UniProt Q9P2Y5)
inactive: [1] -0.024 | [2] 0.01 | [3] 0.001 | [5] -0.03 | Nexturastat A 0.011 | vemurafenib -0.066 | [4] 0.053 | [6] -0.039 | givinostat -0.01 | barasertib -0.075

UNC93B1 (UniProt Q9H1C4)
inactive: [1] 0.226 | [2] 0.003 | [3] -0.082 | [5] -0.035 | Nexturastat A -0.094 | [4] 0.091 | [6] -0.096 | givinostat 0.015 | barasertib -0.01

UBXN4 (UniProt Q92575)
inactive: [1] 0.017 | [2] -0.013 | [3] 0.027 | [5] 0.02 | Nexturastat A -0.072 | vemurafenib -0.007 | [4] 0.074 | [6] -0.083 | givinostat 0.001 | barasertib 0.056

UQCRC1 (UniProt P31930)
inactive: [1] -0.012 | [2] -0.01 | [3] -0.01 | [5] 0.005 | Nexturastat A -0.017 | vemurafenib -0.02 | [4] -0.011 | [6] -0.007 | givinostat -0.023 | barasertib 0.012

USP11 (UniProt P51784)
inactive: [1] -0.141 | [2] 0.084 | [3] 0.048 | Nexturastat A 0.22 | [4] 0.115 | [6] 0.189

USO1 isoform 2 (UniProt O60763)
inactive: [1] 0.009 | [2] -0.013 | [3] 0.02 | [5] 0.038 | Nexturastat A -0.029 | vemurafenib 0.063 | [4] 0.062 | [6] -0.018 | givinostat 0 | barasertib 0.031

VAT1 (UniProt Q99536)
inactive: [1] 0.013 | [2] 0.004 | [3] 0.033 | [5] 0.029 | Nexturastat A -0.074 | vemurafenib 0.05 | [4] 0.059 | [6] 0.014 | givinostat 0.045 | barasertib -0.036
